Laboratory results as given in doi:10.1101/382473.
Results are given in words; binding and its absence hold for the method and conditions named. Binding seen in cells or lysates may run through a third protein. Some binding calls cover weakened binding; strength is not graded here.

Protein sequences, listed by entry. Tags and fused reporters are not part of them.
UniProt Q60793: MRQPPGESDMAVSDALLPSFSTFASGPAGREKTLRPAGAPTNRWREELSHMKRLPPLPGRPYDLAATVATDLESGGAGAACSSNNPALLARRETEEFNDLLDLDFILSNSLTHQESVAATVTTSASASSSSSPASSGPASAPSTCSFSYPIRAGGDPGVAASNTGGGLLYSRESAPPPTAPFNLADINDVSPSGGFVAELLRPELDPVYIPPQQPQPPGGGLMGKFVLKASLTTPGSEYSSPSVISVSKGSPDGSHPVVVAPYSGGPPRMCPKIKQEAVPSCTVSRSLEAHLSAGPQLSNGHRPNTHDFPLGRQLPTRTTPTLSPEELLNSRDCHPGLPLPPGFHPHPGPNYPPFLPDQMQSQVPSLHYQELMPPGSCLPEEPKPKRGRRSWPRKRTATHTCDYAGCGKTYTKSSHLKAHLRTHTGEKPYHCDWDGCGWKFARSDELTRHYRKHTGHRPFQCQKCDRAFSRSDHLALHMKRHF
UniProt Q80U70: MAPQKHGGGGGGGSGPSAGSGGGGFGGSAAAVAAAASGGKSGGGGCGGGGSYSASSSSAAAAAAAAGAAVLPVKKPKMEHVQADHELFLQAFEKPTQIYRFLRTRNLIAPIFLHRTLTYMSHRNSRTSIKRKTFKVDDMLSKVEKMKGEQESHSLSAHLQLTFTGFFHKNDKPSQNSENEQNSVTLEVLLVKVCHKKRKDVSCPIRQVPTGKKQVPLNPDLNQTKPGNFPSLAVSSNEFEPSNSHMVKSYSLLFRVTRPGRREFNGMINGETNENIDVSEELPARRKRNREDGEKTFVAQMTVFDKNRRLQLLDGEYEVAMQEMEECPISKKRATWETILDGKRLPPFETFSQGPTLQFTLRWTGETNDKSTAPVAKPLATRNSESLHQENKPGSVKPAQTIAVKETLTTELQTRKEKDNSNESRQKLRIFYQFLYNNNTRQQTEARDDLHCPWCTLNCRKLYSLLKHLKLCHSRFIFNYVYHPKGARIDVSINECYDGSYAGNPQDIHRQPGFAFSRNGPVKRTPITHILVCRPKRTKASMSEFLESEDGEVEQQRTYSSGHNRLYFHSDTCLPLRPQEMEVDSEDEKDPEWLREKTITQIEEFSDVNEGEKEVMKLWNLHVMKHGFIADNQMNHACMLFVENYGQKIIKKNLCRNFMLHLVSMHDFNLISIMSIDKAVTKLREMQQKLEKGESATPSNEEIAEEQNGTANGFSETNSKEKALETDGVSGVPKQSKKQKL
UniProt Q9CQJ4: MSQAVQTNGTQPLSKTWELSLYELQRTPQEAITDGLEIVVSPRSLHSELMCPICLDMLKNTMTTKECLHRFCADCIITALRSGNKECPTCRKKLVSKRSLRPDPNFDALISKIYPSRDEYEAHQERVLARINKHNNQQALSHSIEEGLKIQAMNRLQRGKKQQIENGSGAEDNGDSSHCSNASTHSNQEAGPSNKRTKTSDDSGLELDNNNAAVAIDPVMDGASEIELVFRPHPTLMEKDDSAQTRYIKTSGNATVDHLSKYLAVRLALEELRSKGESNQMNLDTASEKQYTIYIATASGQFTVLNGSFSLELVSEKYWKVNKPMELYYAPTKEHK

Target: KLF4 (mouse (endogenous in V6.5 ES cells)) (UniProt Q60793)
Experiment: co-IP

Row | binding | Molecule
1 | binds | SUZ12 (from UniProt Q80U70 1-741)
2 | binds | RING1b (from UniProt Q9CQJ4 1-336)
3 | binds | SMC1a (protein, UniProt Q9CU62 1-1233) MGFLKLIEIENFKSYKGRQIIGPFQRFTAIIGPNGSGKSNLMDAISFVLGEKTSNLRVKTLRDLIHGAPVGKPAANRAFVSMVYSEEGAEDRTFARVIVGGSSEYKINNKVVQLHEYSEELEKLGILIKARNFLVFQGAVESIAMKNPKERTALFEEISRSGELAQEYDKRKKEMVKAEEDTQFNYHRKKNIAAERKEAKQEKEEADRYQRLKDEVVRAQVQLQLFKLYHNEVEIEKLNKELASKNKEIEKDKKRMDKVEDELKEKKKELGKMMREQQQIEKEIKEKDSELNQKRPQYIKAKENTSHKIKKLEAAKKSLQNAQKHYKKRKGDMDELEKEMLSVEKARQEFEERMEEESQSQGRDLTLEENQVKKYHRLKEEASKRAATLAQELEKFNRDQKADQDRLDLEERKKVETEAKIKQKLREIEENQKRIEKLEEYITTSKQSLEEQKKLEGELTEEVEMAKRRIDEINKELNQVMEQLGDARIDRQESSRQQRKAEIMESIKRLYPGSVYGRLIDLCQPTQKKYQIAVTKVLGKNMDAIIVDSEKTGRDCIQYIKEQRGEPETFLPLDYLEVKPTDEKLRELKGAKLVIDVIRYEPPHIKKALQYACGNALVCDNVEDARRIAFGGHQRHKTVALDGTLFQKSGVISGGASDLKAKARRWDEKAVDKLKEKKERLTEELKEQMKAKRKEAELRQVQSQAHGLQMRLKYSQSDLEQTKTRHLALNLQEKSKLESELANFGPRINDIKRIIQSREREMKDLKEKMNQVEDEVFEEFCREIGVRNIREFEEEKVKRQNEIAKKRLEFENQKTRLGIQLDFEKNQLKEDQDKVHMWEQTVKKDENEIEKLKKEEQRHMKIIDETMAQLQDLKNQHLAKKSEVNDKNHEMEEIRKKLGGANKEMTHLQKEVTAIETKLEQKRSDRHNLLQACKMQDIKLPLSKGTMDDISQEEGSSQGEESVSGSQRTSSIYAREALIEIDYGDLCEDLKDAQAEEEIKQEMNTLQQKLNEQQSVLQRIAAPNMKAMEKLESVRDKFQETSDEFEAARKRAKKAKQAFEQIKKERFDRFNACFESVATNIDEIYKALSRNSSAQAFLGPENPEEPYLDGINYNCVAPGKRFRPMDNLSGGEKTVAALALLFAIHSYKPAPFFVLDEIDAALDNTNIGKVANYIKEQSTCNFQAIVISLKEEFYTKAESLIGVYPEQGDCVISKVLTFDLTKYPDANPNPNEQ
